Data source: PubChem BioAssay AID602196 (INSERM, 2012)
In all, the deposit lists about 23,000 reagents; this is an unselected part. 455 of all reagents (2%) were called active. 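Active includes both protection and sensitisation; some change values fall well beyond the stated -50 to +50 range.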 Entries without a mark were called inactive. Not all columns of the deposit are shown. Reagent sequences are not shown. The record does not give: the amount of reagent.

- Test: 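Genes whose knock-down alters cisplatin killing of lung cancer cells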
- Cells: human A549 lung cancer cells
- Knock-down reagent: siRNA pair against human genes
- Time to read-out: 48 h transfection before cisplatin; time from cisplatin to read-out not stated
- Challenge: cisplatin at a dose killing half of control-siRNA cells; exact dose and duration not given
- Measured: 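Shift in cisplatin death relative to control siRNA, from -50 (all cells die) to +50 (no cells die); siRNAs harmful on their own scored 0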
- Reading the numbers: two-siRNA summed score (-2 to +2): higher = both siRNAs protect from cisplatin killing; -2 means both sensitise; mean protection from cisplatin (shift in death): higher = protection from cisplatin killing
- Active means: 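Each siRNA scores 0 if harmful alone by LDH or WST-1, otherwise +1 if it reduces and -1 if it increases cisplatin killing; a gene is active when both siRNAs agree (sum +2 or -2)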
- Meaning of the calls: active = both siRNAs shift cisplatin killing the same way; inactive = no consistent shift, or siRNA harmful alone

gene knocked down	two-siRNA summed score (-2 to +2)	mean protection from cisplatin (shift in death) (%)
LOC441074	0	5.3
LOC441829	0	-4.1
NRL	-1	-6.6
LOC23117	0	12.4
LOC440112	0	20.7
GYPA	0	-0.7
PRKAR1A	0	7.4
LOC440115	0	24.6
G3BP1	-1	-1.2
LOC402574	0	-0.8
LOC440869	0	6.7
EGR1	0	9.1
LOC401898	1	4.7
NKRF	0	3.5
RAB3C	-1	-36.1
LOC389338	0	9.8
LETM1	2 (active)	18.9
LOC388174	0	11.1
CA9	-1	-13.1
SLC12A7	0	0
LOC440365	-1	-11.2
USP37	0	1.2
LOC440848	0	7.8

4 entries from above, ordered by “two-siRNA summed score (-2 to +2)”, ascending:
gene knocked down	two-siRNA summed score (-2 to +2)	mean protection from cisplatin (shift in death) (%)
LOC440365	-1	-11.2
SLC12A7	0	0
USP37	0	1.2
LOC440848	0	7.8
